Measurements: publication PMC12775136
No constants are given. Whether binding was seen depends on the method and setting. Sequences can lack the tags named with a protein.

Biological target: T1, GST-3′hExofl (human) (UniProt Q8IV48)
T1 sequence: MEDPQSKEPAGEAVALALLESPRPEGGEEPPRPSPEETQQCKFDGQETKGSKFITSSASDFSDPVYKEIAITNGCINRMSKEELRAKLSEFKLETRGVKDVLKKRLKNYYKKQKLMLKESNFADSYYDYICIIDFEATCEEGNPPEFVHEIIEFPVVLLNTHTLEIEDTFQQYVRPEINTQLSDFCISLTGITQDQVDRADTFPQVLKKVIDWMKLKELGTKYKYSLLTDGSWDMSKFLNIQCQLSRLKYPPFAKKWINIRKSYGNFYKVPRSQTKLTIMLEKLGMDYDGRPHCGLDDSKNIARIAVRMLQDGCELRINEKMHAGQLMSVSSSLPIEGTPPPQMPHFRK
Assay: pull-down; GST pull-down: 8 µg GST-tagged bait with 8 µg prey, 1 h, 25 °C, 20 mM HEPES pH 7.5, 70 mM NaCl, 0.1% NP-40, 10% glycerol; eluted with glutathione; SDS-PAGE, Coomassie; both purified

“UPF2-MIF4G1-2 (human) (domain or fragment)” was tested, and the binding was “no binding (tested: 8 µg prey with 8 µg GST-tagged bait)”.
